Laboratory results: PMC9674103
No constants are given. Whether binding was seen depends on the method and setting.

Key:
Conditions in all cases: remark: other sources report otherwise
[1] = target: T1, full-length recombinant human espin 1 (ectoplasmic specialization protein 1) (human), B1AK53; assay: negative-stain TEM with 2D class averaging and Ni-NTA nanogold labelling; purified espin 1 alone on carbon-coated grids, 1% uranyl acetate; 5 nm Ni-NTA nanogold on the N-terminal his6-tag; 2D classes with SPIDER; both purified
T1 chain: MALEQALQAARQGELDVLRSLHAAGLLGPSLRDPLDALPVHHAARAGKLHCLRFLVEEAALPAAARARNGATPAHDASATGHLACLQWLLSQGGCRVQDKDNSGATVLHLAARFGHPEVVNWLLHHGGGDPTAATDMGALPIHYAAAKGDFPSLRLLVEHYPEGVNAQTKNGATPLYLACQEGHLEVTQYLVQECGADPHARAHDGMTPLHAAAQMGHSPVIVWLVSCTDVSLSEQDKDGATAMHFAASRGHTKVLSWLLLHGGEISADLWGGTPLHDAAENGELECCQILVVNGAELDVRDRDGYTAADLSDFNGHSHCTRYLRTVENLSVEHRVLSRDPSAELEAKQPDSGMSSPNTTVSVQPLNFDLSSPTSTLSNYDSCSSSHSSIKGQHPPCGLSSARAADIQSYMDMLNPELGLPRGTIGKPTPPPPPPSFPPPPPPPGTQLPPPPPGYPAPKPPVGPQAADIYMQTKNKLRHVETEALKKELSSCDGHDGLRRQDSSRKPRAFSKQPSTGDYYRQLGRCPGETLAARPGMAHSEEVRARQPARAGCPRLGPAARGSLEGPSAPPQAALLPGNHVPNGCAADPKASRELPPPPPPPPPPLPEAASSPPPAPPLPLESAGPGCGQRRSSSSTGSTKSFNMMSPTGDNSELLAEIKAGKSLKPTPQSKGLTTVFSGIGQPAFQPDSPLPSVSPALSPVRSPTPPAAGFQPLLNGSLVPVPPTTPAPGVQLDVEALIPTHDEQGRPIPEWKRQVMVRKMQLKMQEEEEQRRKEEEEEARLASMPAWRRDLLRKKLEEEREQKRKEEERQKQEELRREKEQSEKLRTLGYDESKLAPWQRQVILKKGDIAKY

[2] = target: T1, full-length recombinant human espin 1 …; assay: non-reducing PAGE; espin 1 without beta-mercaptoethanol against a reducing control; both purified
[3] = target: T1, full-length recombinant human espin 1 …; assay: SEC; Superdex 200 10/300 GL, 0.4 ml/min, 50 mM sodium acetate, 2 mM MgCl2, 1 mM EGTA, 30 mM HEPES pH 7.5; fractions analysed by SDS-PAGE; both purified

Measured: binding

B1: full-length recombinant human espin 1 (ectoplasmic specialization protein 1), B1AK53 1-854 (protein)
chain: MALEQALQAARQGELDVLRSLHAAGLLGPSLRDPLDALPVHHAARAGKLHCLRFLVEEAALPAAARARNGATPAHDASATGHLACLQWLLSQGGCRVQDKDNSGATVLHLAARFGHPEVVNWLLHHGGGDPTAATDMGALPIHYAAAKGDFPSLRLLVEHYPEGVNAQTKNGATPLYLACQEGHLEVTQYLVQECGADPHARAHDGMTPLHAAAQMGHSPVIVWLVSCTDVSLSEQDKDGATAMHFAASRGHTKVLSWLLLHGGEISADLWGGTPLHDAAENGELECCQILVVNGAELDVRDRDGYTAADLSDFNGHSHCTRYLRTVENLSVEHRVLSRDPSAELEAKQPDSGMSSPNTTVSVQPLNFDLSSPTSTLSNYDSCSSSHSSIKGQHPPCGLSSARAADIQSYMDMLNPELGLPRGTIGKPTPPPPPPSFPPPPPPPGTQLPPPPPGYPAPKPPVGPQAADIYMQTKNKLRHVETEALKKELSSCDGHDGLRRQDSSRKPRAFSKQPSTGDYYRQLGRCPGETLAARPGMAHSEEVRARQPARAGCPRLGPAARGSLEGPSAPPQAALLPGNHVPNGCAADPKASRELPPPPPPPPPPLPEAASSPPPAPPLPLESAGPGCGQRRSSSSTGSTKSFNMMSPTGDNSELLAEIKAGKSLKPTPQSKGLTTVFSGIGQPAFQPDSPLPSVSPALSPVRSPTPPAAGFQPLLNGSLVPVPPTTPAPGVQLDVEALIPTHDEQGRPIPEWKRQVMVRKMQLKMQEEEEQRRKEEEEEARLASMPAWRRDLLRKKLEEEREQKRKEEERQKQEELRREKEQSEKLRTLGYDESKLAPWQRQVILKKGDIAKY
no binding: [1] | [2] | [3]
